# Primary screen of a compound library

The values are deposited in ChEMBL (CHEMBL3988442, “University of Dundee, Small-Polar-MMV Screening Library” (2021)).

Mtb growth Cornell: 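Whole-cell assay for inhibitors of Mycobacterium tuberculosis growth, labelled Cornell in the record; the read-out is not stated. The concentration is filed as 10 mM, unlikely as a test dose, so the dose is not known. Higher means stronger inhibition (inferred from two other growth screens of the library). About 53,000 compounds were tested under these conditions; 1.7% (about 900) showed 50% or more at least once.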
Mtb heat-shock: 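Assay on Mycobacterium tuberculosis, filed only as a heat shock assay from Cornell; the read-out is not stated. The concentration is filed as 10 mM, unlikely as a test dose, so the dose is not known. Direction is inferred from retests: higher values go with stronger inhibition. Size under these conditions: about 69,000 compounds, about 930 of them at 50% or above in at least one test.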

Values are the deposited “Percent Effect”, in %.
The record does not define 0% and 100%; most values in the screen are far below 50% and negative numbers occur (in some assays of this library far below -100).
This is an unselected part of the compounds tested.
A dash means the value is not listed here; it may have been measured.

| Compound | Mtb growth Cornell | Mtb heat-shock |
|---|---|---|
| `CCN1CCN(c2ncnc3c2CCN(C(=O)C2CC2)C3)CC1` | -6.541 | -17.87 |
| `OC1(CNCCc2nc(Cc3ccccc3)no2)CNCCOC1` (centres undefined) | 20.82 | -5.596 |
| `Cc1cc(C)c(-n2cc(CCO)cn2)cc1C` | - | -30.49 |
| `CC(C)C1SCC(=O)Nc2c1c(O)nn2C1CCCC1` (centres undefined) | 4.376 | -26.31 |
| `CC1(C)CC(=O)c2cnc3nc(N4CCOCC4)nc(O)c3c2C1` | 32.61 | -3.921 |
| `CC(C)c1nc(CNCC2CCCN2c2cccnn2)cs1` (centres undefined) | - | 29.57 |
| `Cn1nc(C(=O)NCc2cccnc2)c2c1CCS(=O)(=O)C2` | - | -5.52 |
| `CC(C)CN1CCC2(CCN(Cc3nccs3)CC2)C1=O.O=C(O)C(F)(F)F` | 15.58 | -25.34 |
| `Cc1cc(Br)oc1C(=O)N1CCN(CC(N)=O)CC1` | -5.8 | -4.358 |
| `CCn1nccc1CNc1nc(N)nc2c1nc(C)n2C` | 4.227 | -3.387 |
| `O=C(O)C(F)(F)F.O=C(O)C(F)(F)F.[H][C@@]12C[C@@H](Oc3cncnc3)CN1CCN(Cc1cccc(C)n1)C2` | 5.516 | 31.25 |
| `Cc1cc(CN2CCN(C(=O)NC(C)c3ccncc3)CC2)on1` (centres undefined) | - | 6.422 |
| `OC(CNCCn1cccn1)c1ccc(C(F)(F)F)cc1` (centres undefined) | 19.71 | -12.05 |
| `O=C(O)C(F)(F)F.[H][C@]12CN(c3ccccn3)C[C@@]1(C(=O)N(C)C)CCCN(S(=O)(=O)CC)C2` | 30.85 | -7.82 |
| `Cc1[nH]nc(CCC(=O)NCC2COc3ccccc3C2)c1C` (centres undefined) | 28.41 | -16.42 |
| `CCOc1ccccc1CNC1CCCN(Cc2noc(C)n2)C1` (centres undefined) | - | -17.82 |
| `Cc1csc2c(=O)n(CCN3CCC(c4ccccc4)CC3)cnc12` | 13.74 | 20.98 |
| `COCCN(C)C(=O)c1ccccc1-n1cc(CN(C)C)cn1` | -16.55 | -18.28 |
| `O=C(O)C(F)(F)F.[H][C@@]12CCN(C3CCOCC3)C[C@@]1([H])O[C@@H](C(=O)N1CCCC1)C2` | - | -29.11 |
| `CC(C(=O)N1CCCN(c2ccccc2C#N)CC1)n1cccn1` (centres undefined) | 15.56 | -19.06 |
| `Cc1cccc2c1NC1(CCCC1)NC2=O` | 22.1 | 10.02 |
| `COc1ccc(OC2CCN(C(=O)[C@@H](N)Cc3c[nH]cn3)CC2)cc1` | 16.32 | -18 |
| `N#Cc1ccc2c(c1)CN(C(=O)C1CC=CC1)C2c1cnco1` (centres undefined) | 18.13 | -7.71 |
| `CNC[C@H]1CC[C@H](c2cc(CN(C)S(=O)(=O)N(C)C)n(C)n2)CC1.Cl` | -1.172 | -16.56 |
| `CC(C)Nc1ccc2nc(C3CCN(C(C)C)CC3)nn2c1.O=C(O)C(F)(F)F` | 20.36 | 30.81 |
| `CCOC(C(=O)N1CCn2c(C)nnc2C1)c1ccccc1` (centres undefined) | 1.24 | 2.826 |
| `COc1c(CNCc2ccnc(N3CCOCC3)c2)c(C)nn1C` | 9.98 | -9.672 |
| `CSc1c[nH]nc1NS(=O)(=O)c1ccc(C)c(C)c1` | - | -0.0767 |
| `CC(=O)N1CCN(C(=O)C[C@@H]2C[C@@H](C(C)C)[C@H](CC#N)C=C2C)CC1` | - | -1.518 |
| `[H][C@]12CCN(c3cc(OC)ncn3)CC[C@]1([H])N(C)CCO2` | -12.86 | 31.59 |
| `O=C(c1cccnc1-n1cccn1)N1CCN(CC2CC2)CC1` | - | -6.27 |
| `Nc1nc(CCCNC(=O)c2ccccc2C2CCNC2)cs1` (centres undefined) | - | 8.576 |
| `Cn1c(C2CC2)nc2c1CCN(Cc1nc(Cc3ccccc3)no1)C2` | -16.82 | 24.93 |
| `O=C(O)c1ccccc1C1CCN(C2Cc3ccccc3C2)C1` (centres undefined) | - | 18.14 |
| `Cc1nc2ncnn2c(C)c1CCC(=O)Nc1cccn(C)c1=O` | - | -29.53 |
| `CCNC(=O)c1cccc(CNC(=O)c2cnc(C(C)(C)C)s2)c1` | 9.22 | -17.66 |
| `Cc1cccc(COCC2c3nnn(C)c3CCN2Cc2ccoc2)n1.O=C(O)C(F)(F)F.O=C(O)C(F)(F)F` (centres undefined) | 21.9 | -1.502 |
| `CC(C)CN1CC(C(=O)NCc2cccnc2-n2cccn2)CC1=O` (centres undefined) | - | 5.884 |
| `O=C(O)C(F)(F)F.[H][C@]12CCCC(N(C)Cc3ccccn3)[C@@]1([H])CN(c1ncc(C)cn1)C2` (some centres undefined) | -1.783 | 1.364 |
| `CCN(Cc1nc(C)no1)C(=O)C1CC(=O)N(Cc2cccnc2)C1` (centres undefined) | -35.47 | 1.702 |

Repeated from the top, 4 entries:

| Compound | Mtb growth Cornell | Mtb heat-shock |
|---|---|---|
| `CCN1CCN(c2ncnc3c2CCN(C(=O)C2CC2)C3)CC1` | -6.541 | -17.87 |
| `OC1(CNCCc2nc(Cc3ccccc3)no2)CNCCOC1` (centres undefined) | 20.82 | -5.596 |
| `Cc1cc(C)c(-n2cc(CCO)cn2)cc1C` | - | -30.49 |
| `CC(C)C1SCC(=O)Nc2c1c(O)nn2C1CCCC1` (centres undefined) | 4.376 | -26.31 |